Test results as given in patent US20160311914A1, “USE OF B LYMPHOCYTE STIMULATOR PROTEIN ANTAGONISTS TO PROMOTE TRANSPLANTATION TOLERANCE” (The Trustees of the University of Pennsylvania, priority 2009, published 2016).
At least one compound was matched to its structure with a doubt left.

System: murine islet allografts
Assay: Murine islet allograft model, overall findings (both strain combinations)
Assay type: in vivo, mouse
Details: Streptozotocin-treated diabetic recipients

CO[C@H]1C[C@@H]2CC[C@@H](C)[C@@](O)(O2)C(=O)C(=O)N2CCCC[C@H]2C(=O)O[C@H]([C@H](C)C[C@@H]2CC[C@@H](O)[C@H](OC)C2)CC(=O)[C@H](C)/C=C(\C)[C@@H](O)[C@@H](OC)C(=O)[C@H](C)C[C@H](C)/C=C/C=C/C=C/1C [Rapamycin]
islet allograft survival (in words): only a modest prolongation in islet allograft survival
